This series deals with MucilAir fully differentiated human airway epithelium.

For `C1C[S][Bi]([S]CC[S][Bi]2[S]CC[S]2)[S]1` [BisEDT, Bismuth-1,2-ethanedithiol], the “highest non-toxic concentrations as fold the MIC” value (particulate or solubilized form) is recorded as 25-345 fold. The “highest tested concentration (20.83 μg/mL) fold higher than the MIC” value (solubilized BisEDT, vs M. avium) was 2.5-10 fold. Further, where the note is “solubilized BisEDT, vs most tested CF bacterial isolates”, the “highest tested concentration (20.83 ug/mL) fold higher than the MICs” value is on record as 20-347 fold.
